Measured values reported in PubChem BioAssay AID326 (DTP/NCI, 2004).
The list does not hold the whole screen: it gathers some chemical classes. Not every dose and run of a compound is shown. T/C is the treated group as % of the vehicle group. For survival time, this PubChem deposit counts one and a half times the control or more as active, and values a quarter to a half above the control carry no call in these data; other NCI protocols may use other cut-offs. Schedules are NCI's codes, taken here to give the interval after Q, in days (D) or hours (H), and the number of doses after X.

Test system: CD2F1 mice, P388/DHAQ leukemia ip, median survival T/C
Test: NCI In Vivo Anticancer Drug Screen. Data for tumor model P388 Leukemia resistant to Dihydroxy Anthracenedione; NSC 299195 (intraperitoneal) in CD2F1 (CDF1) mice
Details: T/C endpoint: median survival time, schedule: Q04DX002 (ip), vehicle: saline, higher T/C = longer survival
Method: The antitumor activity of compounds was measured in mice bearing transplantable tumors. Survival or tumor size were measured and the results are expressed as the measurement made in the treated group (T) divided by the measurement made in the vehicle treated control group (C). The tumor model used in this assay is P388 Leukemia resistant to Dihydroxy Anthracenedione; NSC 299195 (intraperitoneal) in CD2F1 (CDF1) mice

CN(CCCl)CCCl
T/C (dose: 0.39 mg/kg/injection): 146 % of control
T/C (dose: 0.65 mg/kg/injection): 147 % of control
T/C (dose: 1.08 mg/kg/injection): 156 % of control
T/C (dose: 3.0 mg/kg/injection): 190 % of control
